Measurements as given in the supplement of paper PMC10849652.
The list shows a part of the results. Residues, ends and D or L forms follow the SMILES beside them. *: point of attachment. Cbz = O=C(OCc1ccccc1)*

Chains of the proteins cited; added tags and fusions are not shown. Lines headed by an entry give the natural chain unless they say otherwise; changes in a name come on top.
UniProt Q719H9: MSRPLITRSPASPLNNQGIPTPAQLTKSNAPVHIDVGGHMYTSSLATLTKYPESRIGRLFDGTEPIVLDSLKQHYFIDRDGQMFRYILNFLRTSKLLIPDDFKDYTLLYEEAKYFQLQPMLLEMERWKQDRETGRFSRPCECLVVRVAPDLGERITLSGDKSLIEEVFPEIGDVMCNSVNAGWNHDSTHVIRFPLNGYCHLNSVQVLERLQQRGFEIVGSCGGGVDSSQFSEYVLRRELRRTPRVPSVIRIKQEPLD
UniProt O00522: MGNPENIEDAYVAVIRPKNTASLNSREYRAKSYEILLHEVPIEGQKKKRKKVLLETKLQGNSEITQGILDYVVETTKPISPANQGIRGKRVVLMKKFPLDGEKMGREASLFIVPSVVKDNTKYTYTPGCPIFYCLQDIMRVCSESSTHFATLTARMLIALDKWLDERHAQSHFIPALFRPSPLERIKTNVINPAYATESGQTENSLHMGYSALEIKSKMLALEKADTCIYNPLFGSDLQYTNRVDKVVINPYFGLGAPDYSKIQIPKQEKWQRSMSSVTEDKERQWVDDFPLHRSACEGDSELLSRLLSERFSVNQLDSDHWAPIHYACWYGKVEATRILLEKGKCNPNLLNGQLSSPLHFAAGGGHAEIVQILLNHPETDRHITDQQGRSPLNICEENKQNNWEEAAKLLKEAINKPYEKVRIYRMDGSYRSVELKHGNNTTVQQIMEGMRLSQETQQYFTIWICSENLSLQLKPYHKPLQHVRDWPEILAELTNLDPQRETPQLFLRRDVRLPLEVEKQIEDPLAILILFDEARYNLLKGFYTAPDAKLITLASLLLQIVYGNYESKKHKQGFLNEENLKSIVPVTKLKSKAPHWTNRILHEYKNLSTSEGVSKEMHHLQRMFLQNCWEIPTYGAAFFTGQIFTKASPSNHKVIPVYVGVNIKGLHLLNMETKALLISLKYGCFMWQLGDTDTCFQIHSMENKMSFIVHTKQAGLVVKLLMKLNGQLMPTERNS
UniProt Q8NB78: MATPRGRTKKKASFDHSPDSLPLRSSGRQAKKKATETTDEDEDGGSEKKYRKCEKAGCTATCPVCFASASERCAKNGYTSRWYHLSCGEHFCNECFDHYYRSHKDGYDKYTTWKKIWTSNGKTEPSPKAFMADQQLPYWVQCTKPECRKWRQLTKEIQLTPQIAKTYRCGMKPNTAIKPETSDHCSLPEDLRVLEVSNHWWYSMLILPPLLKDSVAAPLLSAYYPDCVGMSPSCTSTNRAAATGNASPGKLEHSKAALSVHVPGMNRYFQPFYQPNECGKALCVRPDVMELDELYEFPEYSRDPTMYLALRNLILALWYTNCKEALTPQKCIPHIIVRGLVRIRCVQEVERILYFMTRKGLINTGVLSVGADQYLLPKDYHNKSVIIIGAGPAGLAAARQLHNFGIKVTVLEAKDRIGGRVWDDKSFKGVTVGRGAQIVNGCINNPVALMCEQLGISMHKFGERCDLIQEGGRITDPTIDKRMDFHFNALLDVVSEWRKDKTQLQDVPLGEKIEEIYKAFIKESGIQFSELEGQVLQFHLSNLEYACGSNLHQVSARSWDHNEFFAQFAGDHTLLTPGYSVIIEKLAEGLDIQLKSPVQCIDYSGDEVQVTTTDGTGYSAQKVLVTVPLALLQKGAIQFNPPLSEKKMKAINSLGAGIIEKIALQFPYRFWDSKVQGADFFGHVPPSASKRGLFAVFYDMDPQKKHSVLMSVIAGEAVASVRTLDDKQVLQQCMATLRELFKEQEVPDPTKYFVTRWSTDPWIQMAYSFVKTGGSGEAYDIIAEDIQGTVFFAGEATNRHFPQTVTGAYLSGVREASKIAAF
UniProt O43896: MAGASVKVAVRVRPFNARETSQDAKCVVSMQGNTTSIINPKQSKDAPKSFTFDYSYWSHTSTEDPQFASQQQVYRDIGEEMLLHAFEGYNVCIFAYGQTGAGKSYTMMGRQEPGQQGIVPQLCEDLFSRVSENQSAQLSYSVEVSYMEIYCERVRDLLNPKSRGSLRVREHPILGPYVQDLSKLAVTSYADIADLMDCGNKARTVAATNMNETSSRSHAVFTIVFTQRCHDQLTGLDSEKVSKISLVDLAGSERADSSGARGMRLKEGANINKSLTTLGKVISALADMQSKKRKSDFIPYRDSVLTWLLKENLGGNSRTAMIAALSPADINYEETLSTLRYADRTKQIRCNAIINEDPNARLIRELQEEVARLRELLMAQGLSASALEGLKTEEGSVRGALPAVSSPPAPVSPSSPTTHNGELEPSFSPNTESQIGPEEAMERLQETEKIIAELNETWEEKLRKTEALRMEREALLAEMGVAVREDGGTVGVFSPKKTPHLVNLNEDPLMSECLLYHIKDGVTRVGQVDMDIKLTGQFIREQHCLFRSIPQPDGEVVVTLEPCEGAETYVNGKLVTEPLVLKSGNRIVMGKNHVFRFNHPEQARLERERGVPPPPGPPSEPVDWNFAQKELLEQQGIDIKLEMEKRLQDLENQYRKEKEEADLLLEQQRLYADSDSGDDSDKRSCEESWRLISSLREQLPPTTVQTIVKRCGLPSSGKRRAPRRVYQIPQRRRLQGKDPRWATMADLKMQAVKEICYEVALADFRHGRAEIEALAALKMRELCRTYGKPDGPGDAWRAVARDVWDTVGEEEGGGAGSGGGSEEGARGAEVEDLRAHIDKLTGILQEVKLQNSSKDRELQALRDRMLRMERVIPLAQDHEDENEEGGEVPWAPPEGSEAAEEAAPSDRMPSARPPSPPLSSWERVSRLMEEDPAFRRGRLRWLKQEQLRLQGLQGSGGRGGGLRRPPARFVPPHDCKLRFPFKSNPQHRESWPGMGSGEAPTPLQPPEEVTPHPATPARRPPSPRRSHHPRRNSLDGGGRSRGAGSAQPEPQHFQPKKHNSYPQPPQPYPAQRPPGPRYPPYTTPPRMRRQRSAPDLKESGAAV
UniProt Q2M2Z5: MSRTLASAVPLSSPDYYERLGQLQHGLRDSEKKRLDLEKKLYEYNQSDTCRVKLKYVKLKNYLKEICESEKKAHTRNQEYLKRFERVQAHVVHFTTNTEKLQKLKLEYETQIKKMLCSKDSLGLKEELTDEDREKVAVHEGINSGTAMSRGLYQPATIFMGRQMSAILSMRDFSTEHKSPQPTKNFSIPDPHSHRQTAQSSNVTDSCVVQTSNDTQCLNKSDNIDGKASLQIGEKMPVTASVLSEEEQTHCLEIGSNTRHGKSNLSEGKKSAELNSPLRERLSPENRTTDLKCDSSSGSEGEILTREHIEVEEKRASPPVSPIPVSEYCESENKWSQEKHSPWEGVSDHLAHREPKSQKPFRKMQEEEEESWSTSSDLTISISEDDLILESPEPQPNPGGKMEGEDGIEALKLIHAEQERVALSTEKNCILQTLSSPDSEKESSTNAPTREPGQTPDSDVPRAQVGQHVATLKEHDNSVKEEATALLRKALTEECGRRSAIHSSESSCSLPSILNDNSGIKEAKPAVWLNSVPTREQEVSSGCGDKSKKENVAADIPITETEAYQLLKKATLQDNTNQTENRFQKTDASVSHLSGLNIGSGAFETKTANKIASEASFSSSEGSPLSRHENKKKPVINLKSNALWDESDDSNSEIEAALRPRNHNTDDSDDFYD
UniProt Q96MP8: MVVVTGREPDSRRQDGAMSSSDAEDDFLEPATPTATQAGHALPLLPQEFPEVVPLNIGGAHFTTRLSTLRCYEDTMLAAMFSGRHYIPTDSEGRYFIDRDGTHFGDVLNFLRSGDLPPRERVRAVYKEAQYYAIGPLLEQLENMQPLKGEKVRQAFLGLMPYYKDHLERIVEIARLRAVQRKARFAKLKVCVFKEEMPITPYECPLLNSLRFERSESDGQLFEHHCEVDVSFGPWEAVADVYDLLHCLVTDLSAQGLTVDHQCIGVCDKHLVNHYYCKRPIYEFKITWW
UniProt Q8NG31: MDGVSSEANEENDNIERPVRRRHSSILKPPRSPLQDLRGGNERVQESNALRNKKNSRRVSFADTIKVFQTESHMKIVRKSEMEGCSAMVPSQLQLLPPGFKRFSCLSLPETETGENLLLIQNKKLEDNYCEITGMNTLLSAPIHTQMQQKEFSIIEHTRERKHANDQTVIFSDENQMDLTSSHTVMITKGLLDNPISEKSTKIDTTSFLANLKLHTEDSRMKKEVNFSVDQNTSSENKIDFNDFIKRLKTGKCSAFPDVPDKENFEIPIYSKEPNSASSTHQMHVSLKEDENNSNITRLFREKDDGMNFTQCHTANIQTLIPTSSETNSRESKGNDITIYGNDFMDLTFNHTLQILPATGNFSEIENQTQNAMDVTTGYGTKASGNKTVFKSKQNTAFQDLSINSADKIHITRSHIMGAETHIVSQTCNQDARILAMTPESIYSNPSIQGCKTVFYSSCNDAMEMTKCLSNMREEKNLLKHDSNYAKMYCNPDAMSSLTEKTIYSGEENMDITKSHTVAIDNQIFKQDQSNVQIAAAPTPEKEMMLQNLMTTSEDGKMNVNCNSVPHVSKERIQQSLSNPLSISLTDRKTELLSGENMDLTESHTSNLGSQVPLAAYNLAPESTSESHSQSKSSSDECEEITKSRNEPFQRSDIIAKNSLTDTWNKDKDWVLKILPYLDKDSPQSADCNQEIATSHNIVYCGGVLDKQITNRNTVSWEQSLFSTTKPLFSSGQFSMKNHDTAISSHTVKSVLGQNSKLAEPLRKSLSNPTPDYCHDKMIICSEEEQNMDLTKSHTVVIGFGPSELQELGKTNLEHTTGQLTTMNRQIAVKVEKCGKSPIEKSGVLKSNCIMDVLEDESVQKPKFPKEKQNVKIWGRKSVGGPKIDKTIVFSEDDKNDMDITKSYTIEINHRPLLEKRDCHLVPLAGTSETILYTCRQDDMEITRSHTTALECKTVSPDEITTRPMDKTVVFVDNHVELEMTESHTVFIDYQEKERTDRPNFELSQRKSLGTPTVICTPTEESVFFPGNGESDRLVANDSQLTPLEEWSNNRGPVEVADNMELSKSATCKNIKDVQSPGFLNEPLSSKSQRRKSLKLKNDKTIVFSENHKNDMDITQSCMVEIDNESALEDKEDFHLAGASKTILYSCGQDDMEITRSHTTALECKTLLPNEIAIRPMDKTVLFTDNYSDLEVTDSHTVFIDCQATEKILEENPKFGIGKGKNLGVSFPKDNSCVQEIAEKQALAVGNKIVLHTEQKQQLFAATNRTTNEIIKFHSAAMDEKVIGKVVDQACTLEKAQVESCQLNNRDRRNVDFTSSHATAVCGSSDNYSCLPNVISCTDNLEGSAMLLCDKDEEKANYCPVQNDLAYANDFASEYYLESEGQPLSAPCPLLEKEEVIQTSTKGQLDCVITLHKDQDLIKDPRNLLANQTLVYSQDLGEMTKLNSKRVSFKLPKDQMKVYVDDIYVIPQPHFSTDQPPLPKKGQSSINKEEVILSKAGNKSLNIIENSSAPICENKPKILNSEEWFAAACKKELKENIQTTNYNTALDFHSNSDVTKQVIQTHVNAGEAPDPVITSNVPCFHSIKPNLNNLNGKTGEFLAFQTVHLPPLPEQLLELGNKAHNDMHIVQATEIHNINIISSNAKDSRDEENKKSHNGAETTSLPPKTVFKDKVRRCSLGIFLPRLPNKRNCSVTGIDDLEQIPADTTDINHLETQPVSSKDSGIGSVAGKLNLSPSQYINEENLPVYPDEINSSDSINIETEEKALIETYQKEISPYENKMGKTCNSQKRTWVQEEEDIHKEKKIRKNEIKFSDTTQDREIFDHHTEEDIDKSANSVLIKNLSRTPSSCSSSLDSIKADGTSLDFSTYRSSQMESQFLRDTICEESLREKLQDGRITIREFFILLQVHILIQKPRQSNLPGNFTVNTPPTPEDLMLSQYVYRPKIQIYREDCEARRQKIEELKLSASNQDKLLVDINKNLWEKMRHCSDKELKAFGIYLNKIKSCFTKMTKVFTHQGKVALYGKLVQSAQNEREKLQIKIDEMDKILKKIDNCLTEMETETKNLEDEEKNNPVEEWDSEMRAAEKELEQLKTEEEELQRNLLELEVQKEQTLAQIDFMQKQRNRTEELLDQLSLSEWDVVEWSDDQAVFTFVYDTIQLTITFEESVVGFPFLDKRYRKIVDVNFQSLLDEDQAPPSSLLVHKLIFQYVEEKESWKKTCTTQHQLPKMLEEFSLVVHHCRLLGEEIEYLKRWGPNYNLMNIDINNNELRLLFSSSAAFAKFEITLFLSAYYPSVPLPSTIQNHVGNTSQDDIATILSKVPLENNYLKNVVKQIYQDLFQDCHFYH
UniProt P01591, whole entry, looked up: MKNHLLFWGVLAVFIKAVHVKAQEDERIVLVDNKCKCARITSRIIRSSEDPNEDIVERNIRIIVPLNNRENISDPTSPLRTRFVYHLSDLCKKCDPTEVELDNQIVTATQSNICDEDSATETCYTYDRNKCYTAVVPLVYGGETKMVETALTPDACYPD

Key:
Assay in all cases: log2 fold change, soluble protein after heating vs DMSO (PISA); higher = thermal stabilisation; K562 cells, 10 uM, 30 min; active = over 0.2 and 3.5 SD of the protein, either way, in both replicates (recomputed)
IRAK-1-4 Inhibitor I = compound: C1COCCN1CCN2C3=CC=CC=C3N=C2NC(=O)C4=CC(=CC=C4)[N+](=O)[O-] [IRAK-1-4 Inhibitor I]
Outline: (§1)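 Values are thermal stability changes relative to control samples and are taken from duplicates. They are stated as log2 fold changes. Before quantification by TMTpro 16plex LC-MS/MS with equalised channel sums, K562 cells at 2×10^6 cells/mL were treated with 10 μM compound for 30 min, heated in aliquots for 3 min across 48°C-58°C, pooled, extracted in PBS with 0.5% NP-40 at 4°C, and centrifuged at 21,000xg for 90 min to give the soluble supernatant.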

[1] = compound: CC(C)(O)CC(=O)NCCn1ccc2ncnc(Nc3ccc(Oc4cccc(C(F)(F)F)c4)c(Cl)c3)c21
Outline: as §1

pinometostat = compound: CC(C)N(C[C@H]1O[C@@H](n2cnc3c(N)ncnc32)[C@H](O)[C@@H]1O)[C@H]1C[C@@H](CCc2nc3cc(C(C)(C)C)ccc3[nH]2)C1 [pinometostat]
Outline: as §1

[2] = compound: CC1=C(C(CC(=O)N1)C2=CC=C(C=C2)C(F)(F)F)C(=O)NC3=C(C=C4C(=C3)C=NN4)F
Outline: as §1

[3] = compound: CC1=C(C2=C(C=C1)C(=O)C3=CC=CC=C3N2CCCN)C
Outline: as §1

[4] = compound: CC1=NC(=CC=C1)C2=C(N=C(N2)C(C)(C)C)C3=CC4=NC=CN=C4C=C3
Outline: as §1

Nexturastat A = compound: CCCCN(Cc1ccc(C(=O)NO)cc1)C(=O)Nc1ccccc1 [Nexturastat A]
Outline: as §1

vemurafenib = compound: CCCS(=O)(=O)Nc1ccc(F)c(C(=O)c2c[nH]c3ncc(-c4ccc(Cl)cc4)cc23)c1F [vemurafenib]
Outline: as §1

ibrutinib = compound: C=CC(=O)N1CCC[C@@H](n2nc(-c3ccc(Oc4ccccc4)cc3)c3c(N)ncnc32)C1 [ibrutinib]
Outline: as §1

[5] = compound: CC1=CC=C(C=C1)SC2=C3C=C(SC3=CN=C2)C(=O)N
Outline: as §1

[6] = compound: CCCS(=O)(=O)Nc1ccc(F)c(C(=O)c2c[nH]c3ncc(Cl)cc23)c1F
Outline: as §1

barasertib = compound: CCN(CCCOc1ccc2c(Nc3cc(CC(=O)Nc4cccc(F)c4)[nH]n3)ncnc2c1)CCOP(=O)(O)O [barasertib]
Outline: as §1

ralimetinib = compound: CC(C)(C)Cn1c(N)nc2ccc(-c3[nH]c(C(C)(C)C)nc3-c3ccc(F)cc3)nc21 [ralimetinib]
Outline: as §1

[7] = compound: CC(C)C1=C2N=C(C=C(N2N=C1)NCC3=CC=CC=C3)NCCCCCCN
Outline: as §1

[8] = compound: CC(C)C[C@@H](C=O)NC(=O)[C@H](CC(C)C)NC(=O)[C@H](CC(C)C)NC(=O)OCc1ccccc1
Outline: as §1

[9] = compound: CC1=C(C=C(C=C1)NC(=O)C2=CC(=CC=C2)C(C)(C)C#N)NC3=CC4=C(C=C3)N=CN(C4=O)C
Outline: as §1

[10] = compound: CC1=C(C=C(C=C1)NC(=O)C2=CC(=CC=C2)N(C)C)NC(=O)C3=CC=C(C=C3)O
Outline: as §1

[11] = compound: CCCc1cc(C)[nH]c(=O)c1CNC(=O)c1cc(-c2ccnc(N3CCN(C)CC3)c2)cc2c1cnn2C(C)C
Outline: as §1

givinostat = compound: CCN(CC)Cc1ccc2cc(COC(=O)Nc3ccc(C(=O)NO)cc3)ccc2c1 [givinostat]
Outline: as §1

[12] = compound: CC(=O)c1cnc2ccc(-c3cc(Cl)c(O)c(Cl)c3)nc2c1N[C@H]1CC[C@H](CN(C)C)CC1
Outline: as §1

Measured: log2 fold change

KCTD1 (UniProt Q719H9)
inactive: IRAK-1-4 Inhibitor I -0.048 | [1] -0.043 | pinometostat -0.031 | [2] -0.129 | [3] 0.011 | [4] 0.026 | Nexturastat A 0.088 | vemurafenib -0.08

KLHL42 (UniProt Q9P2K6)
inactive: ibrutinib -0.021 | [1] 0.019 | [3] 0.049 | [5] -0.028 | Nexturastat A -0.238 | [6] 0.022 | barasertib 0.099

KIF26A (UniProt Q9ULI4)
inactive: IRAK-1-4 Inhibitor I -0.02 | ibrutinib -0.024 | ralimetinib -0.043 | [7] 0.05 | [8] 0.028 | pinometostat -0.013 | [2] 0.006 | [9] 0.118 | [10] 0.083 | [5] -0.074 | [4] -0.069 | [6] -0.025 | [11] 0.021 | givinostat -0.006 | barasertib -0.004

KRIT1 (UniProt O00522)
inactive: ibrutinib 0.434 | ralimetinib -0.026 | [1] -0.011 | [7] 0.022 | [8] -0.048 | [2] -0.206 | [9] 0.088 | [10] 0.08 | [5] 0.072 | Nexturastat A -0.088 | vemurafenib 0.027 | [6] 0.063 | givinostat -0.094 | barasertib 0.142

JUN (UniProt P05412)
inactive: ibrutinib 0.43 | ralimetinib 0.04 | [7] -0.074 | [8] 0.129 | [2] 0.202 | [3] 0.037 | [9] -0.265 | [10] 0.114 | [11] -0.028 | givinostat -0.051 | barasertib -0.026

KIAA0754 (UniProt O94854)
inactive: ibrutinib 0.003 | ralimetinib -0.013 | [1] 0.246 | [8] 0.07 | [3] -0.173 | [10] -0.11 | [5] -0.123 | Nexturastat A 0.163 | [6] -0.074 | barasertib 0.156

KDM1B (UniProt Q8NB78)
inactive: IRAK-1-4 Inhibitor I -0.075 | ibrutinib -0.042 | [7] -0.185 | pinometostat 0.116 | [2] 0.023 | [3] -0.107 | [9] 0.093 | [4] -0.082 | [11] 0.168 | givinostat 0.081 | barasertib 0.049

KISS1R (UniProt Q969F8)
inactive: IRAK-1-4 Inhibitor I 0.01 | ibrutinib -0.058 | ralimetinib 0.037 | [1] -0.134 | [7] 0.106 | [8] 0.06 | pinometostat 0.005 | [3] -0.029 | [9] -0.09 | [10] 0.07 | [5] -0.377 | [4] 0.038 | Nexturastat A -0.028 | [6] -0.061 | [11] 0.092 | givinostat 0.022 | barasertib -0.082

KIF1C (UniProt O43896)
inactive: IRAK-1-4 Inhibitor I -0.51 | ibrutinib 0.015 | pinometostat 0.261 | [9] 0.256 | [4] 0.082 | barasertib -0.043

KIZ (UniProt Q2M2Z5)
inactive: IRAK-1-4 Inhibitor I -0.075 | [12] 0.039 | ralimetinib 0.06 | [8] -0.107 | pinometostat 0.099 | [10] 0.057 | [5] 0.003 | [4] -0.068 | [6] -0.181

KCTD7 (UniProt Q96MP8)
inactive: ibrutinib -0.06 | [2] -0.092 | [5] -0.02 | [6] -0.046 | [11] 0.018 | barasertib 0.028

JMJD8 (UniProt Q96S16)
inactive: IRAK-1-4 Inhibitor I -0.021 | [12] -0.025 | ralimetinib 0.011 | [8] -0.066 | pinometostat 0.018 | [2] -0.098 | [9] 0 | [10] 0.006 | [5] -0.063 | [4] -0.067 | vemurafenib 0.117 | [6] -0.036 | [11] 0.025

JMJD7 (UniProt P0C870)
inactive: ibrutinib -0.137 | [1] 0.04 | [7] 0.102 | [2] -0.063 | [9] 0.064 | Nexturastat A 0.002 | givinostat -0.017 | barasertib 0.135

Reprinted at random: two entries already listed
KIF1C (UniProt O43896)
inactive: IRAK-1-4 Inhibitor I -0.51 | ibrutinib 0.015 | pinometostat 0.261 | [9] 0.256 | [4] 0.082 | barasertib -0.043

KISS1R (UniProt Q969F8)
inactive: IRAK-1-4 Inhibitor I 0.01 | ibrutinib -0.058 | ralimetinib 0.037 | [1] -0.134 | [7] 0.106 | [8] 0.06 | pinometostat 0.005 | [3] -0.029 | [9] -0.09 | [10] 0.07 | [5] -0.377 | [4] 0.038 | Nexturastat A -0.028 | [6] -0.061 | [11] 0.092 | givinostat 0.022 | barasertib -0.082

Additional results

KMT2C isoform 3 (UniProt Q8NEZ4)
inactive: ibrutinib 0.007 | [12] -0.02 | ralimetinib 0.074 | [1] -0.044 | [7] -0.06 | [8] 0.191 | [3] 0.049 | [9] -0.053 | [10] -0.07 | Nexturastat A -0.046 | vemurafenib -0.103 | [11] -0.033 | givinostat 0.011 | barasertib -0.003

KNL1 (UniProt Q8NG31)
inactive: IRAK-1-4 Inhibitor I -0.261 | ralimetinib 0.177 | [1] -0.024 | [7] 0.111 | [8] 0.188 | pinometostat 0.352 | [3] 0.085 | [9] -0.088 | [10] 0.029 | [4] -0.066 | Nexturastat A -0.186 | [11] 0.105 | givinostat 0.346

KLHL18 (UniProt O94889)
inactive: ibrutinib 0.082 | [12] 0.104 | ralimetinib 0.055 | [1] 0.006 | [7] -0.117 | [8] -0.111 | [3] 0.088 | [9] -0.068 | [10] -0.009 | [5] 0.003 | Nexturastat A -0.099 | vemurafenib -0.05 | [6] -0.051 | [11] 0.06 | givinostat -0.049 | barasertib 0.11

JCHAIN (UniProt P01591)
inactive: ibrutinib -0.089 | [2] -0.193 | [11] -0.204 | barasertib 0.385
